# Data from patent publication US20030073818A1.
# By UniProt entry, the sequences of proteins in these tests, tags left out.
# UniProt P21728: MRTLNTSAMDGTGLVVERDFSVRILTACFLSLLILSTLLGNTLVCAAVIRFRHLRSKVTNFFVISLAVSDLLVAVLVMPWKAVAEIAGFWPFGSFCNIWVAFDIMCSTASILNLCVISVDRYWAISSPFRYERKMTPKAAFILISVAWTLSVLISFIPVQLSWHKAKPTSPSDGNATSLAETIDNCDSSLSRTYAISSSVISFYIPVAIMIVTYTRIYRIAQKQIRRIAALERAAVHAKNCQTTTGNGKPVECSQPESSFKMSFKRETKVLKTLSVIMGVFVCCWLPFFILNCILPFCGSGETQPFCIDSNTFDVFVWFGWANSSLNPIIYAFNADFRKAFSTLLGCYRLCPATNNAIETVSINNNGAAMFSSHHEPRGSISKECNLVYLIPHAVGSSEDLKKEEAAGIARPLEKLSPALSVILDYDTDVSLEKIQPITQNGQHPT
# Results are given in words; binding and its absence hold for the method and conditions named. Binding seen in cells or lysates may run through a third protein. Some results given as binding are weak or reduced against the parent protein; the word gives no strength. Sequences can lack the tags named with a protein.
# Target: full-length human D1 dopamine receptor stably expressed in D1 HEK293 cells (human) (UniProt P21728)
# Assay: co-immunoprecipitation with GFP mab from transfected D1-HEK293 cells
binder,measurement,value
"EGFP-P24 fusion protein (P24/Calcyon tagged at its N-terminus by enhanced green fluorescent protein) (protein, not shown: large carriers) MVKLGCSFSGKPGKDPGDQDGAAMDSVPLISPLDISQLQPPLPDQVVIKTQTEYQLSSPDQQNFPDLEGQRLNCSHPEEGRRLPTARMIAFAMALLGCVLIMYKAIWYDQFTCPDGFLLRHKICTPLTLEMYYTEMDPERHRSILAAIGAYPLSRKHGTETPAAWGDGYRAAKEERKGPTQAGAAAAATEPPGKPSAKAEKEAARKAAGSAAPPPAQ",binding,binds
